Assay results taken from article PMC12394690.
Results are given in words; binding and its absence hold for the method and conditions named. Binding seen in cells or lysates may run through a third protein. Some binding calls cover weakened binding; strength is not graded here. For some assays here: Where a sequence is shown, tags or fusion partners need not be part of it. Each block holds one molecule with its values, some of them ahead of it.

Amino acid sequences for entries named in this document (tags omitted).
UniProt O00327: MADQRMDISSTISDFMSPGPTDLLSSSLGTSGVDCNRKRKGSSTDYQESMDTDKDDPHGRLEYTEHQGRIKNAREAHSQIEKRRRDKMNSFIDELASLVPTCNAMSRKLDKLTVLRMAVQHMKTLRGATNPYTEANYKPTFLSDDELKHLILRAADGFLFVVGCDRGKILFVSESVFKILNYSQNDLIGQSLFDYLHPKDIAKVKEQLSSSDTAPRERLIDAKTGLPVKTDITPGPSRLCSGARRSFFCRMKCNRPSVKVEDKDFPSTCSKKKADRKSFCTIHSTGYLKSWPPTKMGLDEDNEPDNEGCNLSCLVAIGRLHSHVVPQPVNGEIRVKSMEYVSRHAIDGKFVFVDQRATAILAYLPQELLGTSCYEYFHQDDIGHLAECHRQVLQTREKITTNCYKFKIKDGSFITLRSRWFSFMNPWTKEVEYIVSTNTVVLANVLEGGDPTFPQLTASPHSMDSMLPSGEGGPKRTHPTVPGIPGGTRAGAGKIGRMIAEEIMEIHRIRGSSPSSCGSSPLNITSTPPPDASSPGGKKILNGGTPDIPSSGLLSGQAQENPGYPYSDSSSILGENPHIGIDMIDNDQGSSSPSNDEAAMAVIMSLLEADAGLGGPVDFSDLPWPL

How the values were obtained:
[1] = target: T1, DDB1- and CUL4-associated factor 7 (DCAF7), expressed from a plasmid (UniProt P61962); assay: co-IP; DCAF7-p62 interaction in the absence or presence of overexpressed USP2b
T1 sequence: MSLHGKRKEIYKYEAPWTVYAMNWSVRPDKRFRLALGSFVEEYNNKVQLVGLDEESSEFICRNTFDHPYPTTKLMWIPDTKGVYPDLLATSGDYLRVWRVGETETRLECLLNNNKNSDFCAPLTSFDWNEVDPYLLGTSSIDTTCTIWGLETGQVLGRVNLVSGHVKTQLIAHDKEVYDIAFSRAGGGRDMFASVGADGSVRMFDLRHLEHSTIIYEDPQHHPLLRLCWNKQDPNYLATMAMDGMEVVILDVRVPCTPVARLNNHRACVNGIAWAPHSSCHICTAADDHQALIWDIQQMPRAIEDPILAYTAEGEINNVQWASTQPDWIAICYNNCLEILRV

[2] = target: Brain and muscle ARNT-like 1 (BMAL1), expressed from a plasmid (UniProt O00327); assay: co-IP; BMAL1-p62 interaction in the absence or presence of overexpressed DCAF7 or USP2b
[3] = target: T2, DCAF7, endogenous (human (endogenous; all cell lines of the paper are human)) (UniProt P61962); assay: co-IP; co-immunoprecipitation of DCAF7 and BMAL1, exogenously or endogenously
T2 sequence: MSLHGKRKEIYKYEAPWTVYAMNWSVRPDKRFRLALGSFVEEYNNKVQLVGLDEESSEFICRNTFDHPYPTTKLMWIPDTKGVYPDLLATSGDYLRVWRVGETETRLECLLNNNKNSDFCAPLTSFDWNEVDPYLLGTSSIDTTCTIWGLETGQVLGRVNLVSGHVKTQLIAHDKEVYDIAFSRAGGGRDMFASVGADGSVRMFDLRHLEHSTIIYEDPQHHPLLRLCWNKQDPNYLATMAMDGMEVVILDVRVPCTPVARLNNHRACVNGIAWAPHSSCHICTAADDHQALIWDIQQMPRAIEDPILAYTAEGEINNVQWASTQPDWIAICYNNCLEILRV

[4] = target: T1, DDB1- and CUL4-associated factor 7 (DCAF7), expressed from a plasmid; assay: as above
[5] = target: T3, DCAF7 of the GST pull-down (UniProt P61962); assay: pull-down; GST pull-down in vitro; the paper calls the binding direct; which partner carried GST is not told
T3 sequence: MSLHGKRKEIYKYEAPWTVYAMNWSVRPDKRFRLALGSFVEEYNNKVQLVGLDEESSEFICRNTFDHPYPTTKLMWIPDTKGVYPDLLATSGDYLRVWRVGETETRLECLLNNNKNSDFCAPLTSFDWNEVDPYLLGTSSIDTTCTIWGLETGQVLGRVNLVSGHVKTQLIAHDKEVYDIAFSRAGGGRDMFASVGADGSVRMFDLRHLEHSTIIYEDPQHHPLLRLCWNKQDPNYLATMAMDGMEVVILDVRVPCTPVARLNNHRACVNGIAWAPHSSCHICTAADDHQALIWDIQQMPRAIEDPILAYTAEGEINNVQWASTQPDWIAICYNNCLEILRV

Molecule: sequestosome-1 (SQSTM1 or p62) (from UniProt Q13501 1-440)
binding [1]: binds | binding [2]: binds

Molecule: BMAL1, endogenous (from UniProt O00327 1-626)
binding [3]: binds

More lines, now with the values ahead:

binding [4]: binds
Molecule: Brain and muscle ARNT-like 1 (BMAL1), expressed from a plasmid (from UniProt O00327 1-626)

binding [5]: binds
B1: USP2a of the GST pull-down (enzyme, UniProt O75604-1 1-605)
chain: MSQLSSTLKRYTESARYTDAHYAKSGYGAYTPSSYGANLAASLLEKEKLGFKPVPTSSFLTRPRTYGPSSLLDYDRGRPLLRPDITGGGKRAESQTRGTERPLGSGLSGGSGFPYGVTNNCLSYLPINAYDQGVTLTQKLDSQSDLARDFSSLRTSDSYRIDPRNLGRSPMLARTRKELCTLQGLYQTASCPEYLVDYLENYGRKGSASQVPSQAPPSRVPEIISPTYRPIGRYTLWETGKGQAPGPSRSSSPGRDGMNSKSAQGLAGLRNLGNTCFMNSILQCLSNTRELRDYCLQRLYMRDLHHGSNAHTALVEEFAKLIQTIWTSSPNDVVSPSEFKTQIQRYAPRFVGYNQQDAQEFLRFLLDGLHNEVNRVTLRPKSNPENLDHLPDDEKGRQMWRKYLEREDSRIGDLFVGQLKSSLTCTDCGYCSTVFDPFWDLSLPIAKRGYPEVTLMDCMRLFTKEDVLDGDEKPTCCRCRGRKRCIKKFSIQRFPKILVLHLKRFSESRIRTSKLTTFVNFPLRDLDLREFASENTNHAVYNLYAVSNHSGTTMGGHYTAYCRSPGTGEWHTFNDSSVTPMSSSQVRTSDAYLLFYELASPPSRM
